Data reported in PubChem BioAssay AID330 (DTP/NCI, 2004).
The list is a part of this screen's results and no random one: it covers a few groups of compounds. Other doses and runs of a compound may be missing. T/C is the treated group as % of the vehicle group. For survival time, the PubChem record calls one and a half times the control and up active, and a quarter to a half above the control has no call in these data; cut-offs in other NCI protocols can differ. Schedule codes are those of the source, taken here to give the interval after Q, in days (D) or hours (H), and the number of doses after X. Some entries show no survivor count and are marked so; the dose need not have been tolerated. Some entries were tested several times; their values stand side by side, smallest first.

System: P388 leukemia ip, CD2F1 mice, survival T/C
Test: NCI In Vivo Anticancer Drug Screen. Data for tumor model P388 Leukemia (intraperitoneal) in CD2F1 (CDF1) mice
Conditions: T/C endpoint: median survival time, higher T/C = longer survival
[1] = dose: 5.0 mg/kg/injection, schedule: Q04DX002 (ip), vehicle: water
[2] = dose: 10.0 mg/kg/injection, schedule: Q04DX002 (ip), vehicle: water
[3] = dose: 20.0 mg/kg/injection, schedule: Q04DX002 (ip), vehicle: water
[4] = dose: 0.31 mg/kg/injection, schedule: Q01DX009 (ip), vehicle: saline + alcohol
[5] = dose: 1.25 mg/kg/injection, schedule: Q01DX009 (ip), vehicle: saline + alcohol

Which T/C (dose: 0.75 mg/kg/injection, schedule: Q01DX009 (ip), vehicle: saline + alcohol) does the source give for `CC1=C[C@H]2O[C@@H]3[C@H](OC(=O)CCl)[C@@H](O)[C@](C)(C2(CO)CC1)[C@@]31CO1` (stereo partly specified) here?
The T/C was 120 % of control [survivor count not shown].

What about the T/C (dose: 1.5 mg/kg/injection, schedule: Q01DX009 (ip), vehicle: saline + alcohol) of the same molecule?
Its T/C is 137 % of control [survivor count not shown].

And the T/C (dose: 1.5 mg/kg/injection, schedule: Q01DX009 (ip), vehicle: saline with Tween-80)?
The T/C was 155 % of control [survivor count not shown].

What about the T/C (dose: 3.0 mg/kg/injection, schedule: Q01DX009 (ip), vehicle: saline + alcohol) of the same molecule?
Its T/C is 137 % of control [survivor count not shown].

What about the T/C (dose: 3.0 mg/kg/injection, schedule: Q01DX009 (ip), vehicle: saline with Tween-80) of the same molecule?
The T/C was 168 % of control [survivor count not shown].

And the T/C (dose: 6.0 mg/kg/injection, schedule: Q01DX009 (ip), vehicle: saline + alcohol)?
The T/C was 153 % of control [survivor count not shown].

And the T/C (dose: 6.0 mg/kg/injection, schedule: Q01DX009 (ip), vehicle: saline with Tween-80)?
Its T/C is 180 % of control [survivor count not shown].

What about the T/C (dose: 12.0 mg/kg/injection, schedule: Q01DX009 (ip), vehicle: saline + alcohol) of the same molecule?
Its T/C is 170 % of control [survivor count not shown].

What about the T/C (dose: 12.0 mg/kg/injection, schedule: Q01DX009 (ip), vehicle: saline with Tween-80) of the same molecule?
Its T/C is 104 % of control [survivor count not shown].

Which results are given for `C#CCNC1C2OC3C=C(C)CCC3(COC(C)=O)C(C)(C1O)C21CO1` (stereo unspecified)?
T/C (dose: 1.25 mg/kg/injection, schedule: Q04DX002 (ip), vehicle: water): 102 % of control [survivor count not shown]; T/C (dose: 2.5 mg/kg/injection, schedule: Q04DX002 (ip), vehicle: water): 112 % of control [survivor count not shown]; T/C [1]: 114 [survivor count not shown] and 119 % of control [survivor count not shown]; T/C [2]: 123 [survivor count not shown] and 128 % of control [survivor count not shown]; T/C [3]: 116 [survivor count not shown] and 123 % of control [survivor count not shown]

How did the T/C (dose: 0.15 mg/kg/injection, schedule: Q01DX009 (ip), vehicle: saline + alcohol) turn out when `CC(O)C1/C=C/C=C/C(=O)OC2CC3OC4C5OC5(C)CCC4(COC(=O)C(O)C(C)CCO1)C2(C)C31CO1` (stereo unspecified) was run?
Its T/C is 124 % of control [survivor count not shown].

What about the T/C [4] of the same molecule?
The T/C was 133 % of control [survivor count not shown].

What about the T/C (dose: 0.62 mg/kg/injection, schedule: Q01DX009 (ip), vehicle: saline + alcohol) of the same molecule?
The T/C was 147 % of control [survivor count not shown].

And the T/C [5]?
Its T/C is 157 % of control [survivor count not shown].

What about the T/C (dose: 2.5 mg/kg/injection, schedule: Q01DX009 (ip), vehicle: saline + alcohol) of the same molecule?
Its T/C is 171 % of control [survivor count not shown].

What about the T/C (dose: 5.0 mg/kg/injection, schedule: Q01DX009 (ip), vehicle: saline + alcohol) of the same molecule?
The T/C was 186 % of control [survivor count not shown].

And the T/C (dose: 10.0 mg/kg/injection, schedule: Q01DX009 (ip), vehicle: saline + alcohol)?
Its T/C is 205 % of control [survivor count not shown].

`CC(=O)OC[C@]12CCC(C)=C[C@H]1O[C@H]1C(=O)[C@@H](OC(C)=O)[C@@]2(C)[C@]12CO2` was tested. Which T/C (dose: 0.5 mg/kg/injection, schedule: Q01DX009 (ip), vehicle: saline + alcohol) did it give?
The T/C was 141 [survivor count not shown] and 151 % of control [survivor count not shown].

And the T/C (dose: 1.0 mg/kg/injection, schedule: Q01DX009 (ip), vehicle: saline + alcohol)?
Its T/C is 147 [survivor count not shown] and 156 % of control [survivor count not shown].

And the T/C (dose: 2.0 mg/kg/injection, schedule: Q01DX009 (ip), vehicle: saline + alcohol)?
The T/C was 181 [survivor count not shown] and 184 % of control [survivor count not shown].

And the T/C (dose: 4.0 mg/kg/injection, schedule: Q01DX009 (ip), vehicle: saline + alcohol)?
The T/C was 192 % of control [survivor count not shown].

How did the T/C [1] turn out when `CC(=O)OCC12CCC(C)=CC1OC1C(NCCO)C(O)C2(C)C12CO2` (stereo unspecified) was run?
Its T/C is 106 [survivor count not shown] and 107 % of control [survivor count not shown].

What about the T/C [2] of the same molecule?
The T/C was 114 [survivor count not shown] and 119 % of control [survivor count not shown].

And the T/C [3]?
The T/C was 116 [survivor count not shown] and 128 % of control [survivor count not shown].

What about the T/C (dose: 40.0 mg/kg/injection, schedule: Q04DX002 (ip), vehicle: water) of the same molecule?
The T/C was 121 [survivor count not shown] and 128 % of control [survivor count not shown].

And the T/C (dose: 80.0 mg/kg/injection, schedule: Q04DX002 (ip), vehicle: water)?
The T/C was 135 % of control [survivor count not shown].

`CC1=CC2OC3CC4OC(=O)/C=C/C=C/C(=O)OCCC(C)C(O)C(=O)OCC2(CC1O)C4(C)C31CO1` (stereo unspecified) was tested. Which T/C (dose: 0.16 mg/kg/injection, schedule: Q01DX009 (ip), vehicle: saline + alcohol) did it give?
Its T/C is 117 % of control [survivor count not shown].

And the T/C (dose: 0.25 mg/kg/injection, schedule: Q01DX009 (ip), vehicle: suspension in saline)?
The T/C was 115 % of control [survivor count not shown].

What about the T/C [4] of the same molecule?
Its T/C is 128 % of control [survivor count not shown].

What about the T/C (dose: 0.63 mg/kg/injection, schedule: Q01DX009 (ip), vehicle: saline + alcohol) of the same molecule?
The T/C was 131 % of control [survivor count not shown].

And the T/C (dose: 1.0 mg/kg/injection, schedule: Q01DX009 (ip), vehicle: suspension in saline)?
The T/C was 102 % of control [survivor count not shown].

And the T/C [5]?
Its T/C is 132 % of control [survivor count not shown].
